Results are given in words; binding and its absence hold for the method and conditions named. In cells and extracts the contact can be indirect. Some entries that bind do so weakly or less than the wild type.

Protein sequences, listed by entry. Tags and fused reporters are not part of them.
UniProt Q62193: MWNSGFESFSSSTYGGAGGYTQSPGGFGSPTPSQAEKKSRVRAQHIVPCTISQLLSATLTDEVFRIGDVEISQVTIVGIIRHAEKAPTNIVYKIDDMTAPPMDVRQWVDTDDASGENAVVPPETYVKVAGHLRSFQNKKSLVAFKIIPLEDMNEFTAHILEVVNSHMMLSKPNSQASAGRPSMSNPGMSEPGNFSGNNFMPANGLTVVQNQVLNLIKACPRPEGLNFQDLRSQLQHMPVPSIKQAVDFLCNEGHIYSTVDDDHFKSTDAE
UniProt P09405: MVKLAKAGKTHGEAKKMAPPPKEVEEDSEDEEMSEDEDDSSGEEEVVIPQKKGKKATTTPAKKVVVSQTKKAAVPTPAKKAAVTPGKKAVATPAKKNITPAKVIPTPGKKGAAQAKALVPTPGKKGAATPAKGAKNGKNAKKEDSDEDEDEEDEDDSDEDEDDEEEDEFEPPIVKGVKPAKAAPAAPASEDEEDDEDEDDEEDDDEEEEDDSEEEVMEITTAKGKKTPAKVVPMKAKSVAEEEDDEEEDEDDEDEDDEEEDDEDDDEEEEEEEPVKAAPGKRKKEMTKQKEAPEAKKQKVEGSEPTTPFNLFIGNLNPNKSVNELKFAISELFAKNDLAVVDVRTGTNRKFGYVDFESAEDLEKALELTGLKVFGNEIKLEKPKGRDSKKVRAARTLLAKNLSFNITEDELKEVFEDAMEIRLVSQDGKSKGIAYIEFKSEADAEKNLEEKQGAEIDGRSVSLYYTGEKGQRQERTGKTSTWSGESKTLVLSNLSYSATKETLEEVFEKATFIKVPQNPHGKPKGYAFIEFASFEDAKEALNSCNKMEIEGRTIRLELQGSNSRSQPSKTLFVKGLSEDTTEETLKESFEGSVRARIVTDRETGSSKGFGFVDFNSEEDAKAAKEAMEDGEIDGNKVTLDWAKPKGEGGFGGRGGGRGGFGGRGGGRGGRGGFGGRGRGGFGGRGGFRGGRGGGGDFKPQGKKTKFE

We go through one substance from article PMC8458541.

Experiment [1] addresses RPA32, subunit of the replication protein A (RPA) complex (mouse (endogenous in mESCs and MEFs)) (UniProt Q62193). Kind of experiment: co-IP; immunoprecipitation with 2.5 ug RPA32 antibody on Protein G Dynabeads from RIPA lysates of MEFs with vector or ectopic Discn; cells normal or treated with HU, etoposide or heat shock; NCL detected by immunoblot; isotype IgG as control.

Experiment [2] shares this target. The experiment can be described thus: co-IP; immunoprecipitation with 2.5 ug RPA32 antibody on Protein G Dynabeads from RIPA lysates of mouse ESCs (Discn knockdown control KD-C, KD-1, KD-2); cells normal or treated with HU (2 mM, 4 h); NCL detected by immunoblot; isotype IgG as control. On the technique in general: In western blotting, separated proteins are transferred to a membrane and probed.

Consider “nucleolin (NCL) (from UniProt P09405 1-707)”, for which the binding entry in experiment [1] and in experiment [2] was “binds” throughout.
